Assay results published in publication PMC7819943, “Rice protein-binding microarrays: a tool to detect cis-acting elements near promoter regions in rice”.
The other results are listed elsewhere or left out.

By UniProt entry, the sequences of proteins in these tests, tags left out.
UniProt Q0JBA9, entry or part of it: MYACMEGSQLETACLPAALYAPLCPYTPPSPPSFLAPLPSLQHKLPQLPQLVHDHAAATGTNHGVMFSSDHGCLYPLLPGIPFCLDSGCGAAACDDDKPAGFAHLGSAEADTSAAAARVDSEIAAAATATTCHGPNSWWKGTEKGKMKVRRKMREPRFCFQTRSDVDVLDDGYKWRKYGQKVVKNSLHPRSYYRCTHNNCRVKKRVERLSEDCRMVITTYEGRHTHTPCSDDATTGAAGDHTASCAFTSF

target: OsWRKY34 (Oryza sativa, UniProt Q0JBA9 1-250); experiment: protein-binding microarray (RPBM); PBS, 2% BSA, 51.3 ng/ul salmon testes DNA, 50 uM zinc acetate, 200 nM TF, 25 C, 1 h; high values mean tight binding; conditions: protein: recombinant; tags: N-terminal polyhistidine and DsRed monomer fusion (pET32a); label: CyDye5-dUTP incorporated in the synthesized complementary strand; 3' TTTTT single-stranded linker to array surface; dsDNA, one strand shown
In short: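 Per-feature fluorescence intensity (arbitrary units), read on an Axon 4000B scanner, is the binding signal. Transcription factors carrying an N-terminal polyhistidine tag and DsRed fusion were expressed in E. coli BL21-CodonPlus and purified on Ni–NTA. A custom Agilent array, made double-stranded by primer extension with Cy5-dUTP and blocked with 2% BSA, was incubated with 200 nM protein in PBS, 2% BSA, salmon testes DNA and 50 µM zinc acetate at 25 °C for 1 h and then washed.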

Row | Sequence | binding signal
1 | CGCACAACATGCCCGCTCTGCCGTTCTGACGTCGCCGTCGCGGAGTCACCTAGTGCAG | 9660 fluorescence intensity (a.u.)
2 | ACCATCACACACGCTAGCTCTCTTTCTCGCTTTCACCCGCCGGAGTCACCTAGTGCAG | 11200 fluorescence intensity (a.u.)
3 | GGTCAAACATTTTAAAAAAAAGTCAACGGCGTCAAATATTCGGAGTCACCTAGTGCAG | 8800 fluorescence intensity (a.u.)
4 | TGGGGTTGGTATTCTGGAGTTAAGTGGTTCACCGCCATGTCGGAGTCACCTAGTGCAG | 10300 fluorescence intensity (a.u.)
5 | ATCGTTTGTTATTCAGTTTATCCAGCCAAAATTTAAATTTCGGAGTCACCTAGTGCAG | 9280 fluorescence intensity (a.u.)
6 | AAAATATATATGTACCTATGCGCACACACCACTGCAAACACGGAGTCACCTAGTGCAG | 11800 fluorescence intensity (a.u.)
7 | GGCGTTATTTAGAATAATAGTTGAGGTGTGTAAAGTTTTCCGGAGTCACCTAGTGCAG | 9510 fluorescence intensity (a.u.)
8 | TGCTCTCGTCTCTTCTTGCTTACAGAAGAATCCTCGCTTCCGGAGTCACCTAGTGCAG | 9770 fluorescence intensity (a.u.)
9 | GAACACATATGTCGAAAATTTTTTGGGACTCTTGCCTTTTCGGAGTCACCTAGTGCAG | 9460 fluorescence intensity (a.u.)
10 | CAACTGGTTAATGGAGGTTAACTAGCAAAAACCGTTGACTCGGAGTCACCTAGTGCAG | 9940 fluorescence intensity (a.u.)
11 | TCTTCTAGGCATGCAACATAATAAAAGTCTTTACTCATACCGGAGTCACCTAGTGCAG | 8880 fluorescence intensity (a.u.)
12 | GCTTACTTCCTTTATTATGTTTGCTACTAGCTGAATCAACCGGAGTCACCTAGTGCAG | 9940 fluorescence intensity (a.u.)
13 | CTTAAGCTTATTCATGTTTTCATCAGTCTGAAACCAAACACGGAGTCACCTAGTGCAG | 8450 fluorescence intensity (a.u.)
14 | TCCTCCCATCTCTCTCTCTTTTGCCCACACTCTTTTCACACGGAGTCACCTAGTGCAG | 9330 fluorescence intensity (a.u.)
15 | GCCTGTTCACTTTGATGCTATTTTCAACCATACCATTTTTCGGAGTCACCTAGTGCAG | 12200 fluorescence intensity (a.u.)
16 | CATGTGCTAAAAAGTCAACGGCGTCAAACATTTCAAAACGCGGAGTCACCTAGTGCAG | 10300 fluorescence intensity (a.u.)
17 | GAGAACATGGATGGATAGTGGATTTCTTATTGATTGTTGACGGAGTCACCTAGTGCAG | 8130 fluorescence intensity (a.u.)
18 | CGTGAGCGGGTGGTGGTGGTGATGGCGTTCGCGGTGGCGACGGAGTCACCTAGTGCAG | 9660 fluorescence intensity (a.u.)
19 | AACTCATCAGCAACTATCTATCTTTATTTCTGCATCTACTCGGAGTCACCTAGTGCAG | 10200 fluorescence intensity (a.u.)
20 | GGTCCGGCATCGCCCTCCGCACTATTTTACGTCCCCACATCGGAGTCACCTAGTGCAG | 11700 fluorescence intensity (a.u.)
21 | TTTTTAGCGCATGTTTGACCGTTCGTCTTATTCAAAAACTCGGAGTCACCTAGTGCAG | 10800 fluorescence intensity (a.u.)

Row | Sequence | binding signal
22 | GCACCCTGTCACTCCACCTCGAGGCTACCTAGACGTTATTCGGAGTCACCTAGTGCAG | 9550 fluorescence intensity (a.u.)
23 | ACGCGGTGGCTGTTGTCTGTCGCGGTTGTTTCTTGTCTGTCGGAGTCACCTAGTGCAG | 9170 fluorescence intensity (a.u.)
24 | TATCTCCTATGGTAAGTTCGCTACTCTCAACCTATAAATACGGAGTCACCTAGTGCAG | 8150 fluorescence intensity (a.u.)
25 | GCACAATCGCTCCTTCTACACACCTACCCCATTTTCTTCTCGGAGTCACCTAGTGCAG | 10100 fluorescence intensity (a.u.)
26 | ACATAACACCACTTGATACTATTTCTCTTAATTAATTACTCGGAGTCACCTAGTGCAG | 9670 fluorescence intensity (a.u.)
27 | TCCGTTGACCCCATAGTTTCTTACCATCATCGTTTAGAGTCGGAGTCACCTAGTGCAG | 12700 fluorescence intensity (a.u.)
28 | ATATGTCTATGATTCGTTACCATATACTCTATCCGTTTCTCGGAGTCACCTAGTGCAG | 9810 fluorescence intensity (a.u.)
29 | TTCTGTTGTGTTCACGGTCTACCTTCTCGATTCACCGCGCCGGAGTCACCTAGTGCAG | 11400 fluorescence intensity (a.u.)
30 | GCCTCAAAACCCGACCAACCTCAGTTCGGCTCGCGGCTCGCGGAGTCACCTAGTGCAG | 9000 fluorescence intensity (a.u.)
31 | GGTGGTCGGGGCTCTGACGCGGCGGGGCGGCGGAGGTGGTCGGAGTCACCTAGTGCAG | 10800 fluorescence intensity (a.u.)
32 | GGGGAATTGGGGATCTAGCTCGGGGATTTTTTTAGACAGACGGAGTCACCTAGTGCAG | 12800 fluorescence intensity (a.u.)
33 | ATTTTGACTTTTTCTTGTACTGTTTGACCATTCATCTTATCGGAGTCACCTAGTGCAG | 16200 fluorescence intensity (a.u.)
34 | TGGACCCGGGCTATCCTTTGAACTGGCTATGCGGCTTTCCCGGAGTCACCTAGTGCAG | 9790 fluorescence intensity (a.u.)
35 | ACCCTTTTTACGTGGAATACTTAATCTTCATCCTCATCTTCGGAGTCACCTAGTGCAG | 8470 fluorescence intensity (a.u.)
36 | ACTCCAAGATAAATTTTTCTGGACGCCATCTTCTTTTGTTCGGAGTCACCTAGTGCAG | 8390 fluorescence intensity (a.u.)
37 | CCTCCTCCAATCGCATTCTCCTCTCCACCTGCTGCATTACCGGAGTCACCTAGTGCAG | 8130 fluorescence intensity (a.u.)
38 | ATTTTTCTTTTCTGGTTCCTTCTTTCAGGCCCTTTGAATCCGGAGTCACCTAGTGCAG | 8640 fluorescence intensity (a.u.)
39 | AAAATGGACGTGACATTTGCCTTGGGCGTCTTGTGTTTGTCGGAGTCACCTAGTGCAG | 8080 fluorescence intensity (a.u.)
40 | CCCGCCGCCGCTGTCCTTGCAGCCGCCCGGCTTTGCCGGCCGGAGTCACCTAGTGCAG | 9080 fluorescence intensity (a.u.)
41 | TACATTCCCGTGTTTGTCTGCTCCGGCTCCACCCGAACTCCGGAGTCACCTAGTGCAG | 9830 fluorescence intensity (a.u.)
42 | ACCACCCACGTCGGGAGCGCTAGTCGCCGTTCACATTCTCCGGAGTCACCTAGTGCAG | 9170 fluorescence intensity (a.u.)

A second format for some results above.
Row,Sequence,binding signal
1,CGCACAACATGCCCGCTCTGCCGTTCTGACGTCGCCGTCGCGGAGTCACCTAGTGCAG,9660 fluorescence intensity (a.u.)
2,ACCATCACACACGCTAGCTCTCTTTCTCGCTTTCACCCGCCGGAGTCACCTAGTGCAG,11200 fluorescence intensity (a.u.)
3,GGTCAAACATTTTAAAAAAAAGTCAACGGCGTCAAATATTCGGAGTCACCTAGTGCAG,8800 fluorescence intensity (a.u.)
6,AAAATATATATGTACCTATGCGCACACACCACTGCAAACACGGAGTCACCTAGTGCAG,11800 fluorescence intensity (a.u.)
8,TGCTCTCGTCTCTTCTTGCTTACAGAAGAATCCTCGCTTCCGGAGTCACCTAGTGCAG,9770 fluorescence intensity (a.u.)
10,CAACTGGTTAATGGAGGTTAACTAGCAAAAACCGTTGACTCGGAGTCACCTAGTGCAG,9940 fluorescence intensity (a.u.)
15,GCCTGTTCACTTTGATGCTATTTTCAACCATACCATTTTTCGGAGTCACCTAGTGCAG,12200 fluorescence intensity (a.u.)
20,GGTCCGGCATCGCCCTCCGCACTATTTTACGTCCCCACATCGGAGTCACCTAGTGCAG,11700 fluorescence intensity (a.u.)
30,GCCTCAAAACCCGACCAACCTCAGTTCGGCTCGCGGCTCGCGGAGTCACCTAGTGCAG,9000 fluorescence intensity (a.u.)
36,ACTCCAAGATAAATTTTTCTGGACGCCATCTTCTTTTGTTCGGAGTCACCTAGTGCAG,8390 fluorescence intensity (a.u.)
42,ACCACCCACGTCGGGAGCGCTAGTCGCCGTTCACATTCTCCGGAGTCACCTAGTGCAG,9170 fluorescence intensity (a.u.)
